PubChem BioAssay AID504784 – Drosophila RNAi Screening Center – 2011
In all, the deposit lists about 17,000 reagents; below is a random part of those that have a named target and a result. 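Each column is one replicate's B-score; the combined score over replicates was not deposited, so single values may mislead.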 Names joined by + are all predicted targets of the reagent. Reagent sequences are not shown.

Screen: 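Genome-wide knock-down for genes giving too much or too little stored lipid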 (primary screen)
Cell system: Drosophila Kc167 embryonic cells
Reagent: long dsRNA against Drosophila genes, about 250 ng dsRNA per well
Timing: 4 days
Treatment: cells fed 400 µM oleic acid bound to BSA
Measured: 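Cells imaged and segmented; ratio of lipid droplet area to nuclear area, log-transformed, then normalised as a B-score over the screen; higher means more stored lipid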
Reading the numbers: droplet/nuclear area B-score: higher = more stored lipid (overstorage)

predicted target | amplicon | droplet/nuclear area B-score, replicate 1 | droplet/nuclear area B-score, replicate 2 | droplet/nuclear area B-score, replicate 3
Pka-R2 | DRSC07509 | -1.69 | -0.182 | –
CG7627 | DRSC03065 | 1.31 | 0.464 | –
Ugt37E1 | DRSC02248 | 0.342 | 0.0353 | –
MCU | DRSC10339 | -1.03 | 2.49 | –
Mgat4a | DRSC09326 | 2.38 | 0.317 | –
Mgat4a | DRSC11070 | -0.0217 | 0.655 | –
Corp | DRSC17771 | 1.96 | 0.0723 | 0.969
CG9692 | DRSC11091 | -0.406 | -1.91 | –
CG10747 | DRSC02104 | -2.53 | 0.834 | –
CG15373 | DRSC19663 | -0.9 | -0.00932 | –
CG15888 | DRSC15125 | 2.17 | 2.72 | –
SMC1 | DRSC16846 | -0.308 | 0.474 | –
sona | DRSC04089 | -1.01 | 0.377 | –
sona | DRSC04574 | -0.0627 | 0.807 | –
sona | DRSC04575 | 2.58 | -0.797 | –
srp | DRSC17068 | -0.295 | -0.346 | –
srp | DRSC23166 | 1.81 | -0.189 | –
Aladin | DRSC18121 | 1.13 | 0.185 | 0.08
dl | DRSC03520 | 0.235 | -2 | –
dl | DRSC03521 | 2.52 | 0.228 | –
Acph-1 | DRSC14103 | 1.11 | -0.336 | –
CG12689 | DRSC17879 | 0.162 | -0.565 | –
Alp1 | DRSC11781 | -0.642 | -0.0173 | 1.11
CG3104 | DRSC00567 | -0.793 | 2.11 | –
Cand1 | DRSC01992 | 0.287 | -1.5 | –
CG15145 | DRSC02446 | 0.492 | 0.935 | –
CG17002 | DRSC04978 | 0.955 | 0.621 | –
CG14892 | DRSC15014 | 1.76 | -0.19 | –
Osi3 | DRSC12175 | -0.766 | 0.202 | –
TkR86C | DRSC16880 | -1.04 | 3.4 | –
mRpL43 | DRSC04508 | 0.669 | 0.0647 | 12.2
mRpL43 | DRSC22571 | 2.1 | 0.832 | –
Eglp2 | DRSC04294 | -0.288 | -0.648 | –
CG1463 | DRSC19603 | 1.29 | -1.2 | 0.0132
CG13907 | DRSC08377 | 0.03 | -1.23 | –
CG7786 | DRSC07045 | -0.0826 | 0.952 | –
Det | DRSC14489 | -0.253 | -0.592 | –
CG32271 | DRSC08198 | -1.13 | -1.18 | –
CG31823 | DRSC01887 | 0.327 | 1.57 | –
140up | DRSC12634 | 0.52 | 6.81 | –
Ref1 | DRSC12497 | 1.61 | -0.0108 | -0.18
Ref1 | DRSC22387 | 8.64 | 1.6 | –
CG13390 | DRSC02261 | 0.787 | -0.143 | –
Jhbp14 | DRSC01988 | 0.244 | -0.874 | –
CG15186 | DRSC12566 | -0.226 | -0.0974 | –
simj | DRSC10942 | -0.0571 | 1.14 | –
Vha68-3 | DRSC02809 | 0.0398 | -1.03 | –
CG12783 | DRSC14538 | -0.467 | 0.0227 | –
Fnta | DRSC00557 | -0.0329 | 1.51 | –
Ser6 | DRSC20574 | -0.85 | -0.00905 | –
ocn | DRSC17020 | 1.14 | 1.16 | –
CG30008 | DRSC21576 | -0.668 | 3.36 | –
CG32073 | DRSC09087 | 0.146 | 1.57 | –
CG32073 | DRSC09894 | -2.41 | 0.671 | –
Su(var)3-3 | DRSC10250 | -0.348 | 0.73 | 0.0221
CG14354 | DRSC14817 | -0.43 | 2.26 | –
Trhn | DRSC08621 | 0.22 | 2.51 | –
smid | DRSC11398 | 0.117 | -0.388 | –
qvr | DRSC05280 | -0.639 | -0.0248 | –
stc | DRSC03620 | -0.737 | -0.8 | –
Hsp70Bb + Hsp70Ba + Hsp70Bc + 1 more | DRSC21247 | 4.65 | 4.57 | –
Hsp70Bb + Hsp70Ba + Hsp70Bc + 1 more | DRSC21248 | 3.04 | 2.56 | –
CG43078 | DRSC10292 | -1.73 | -4.06 | –
CG43078 | DRSC10608 | -0.808 | 0.441 | –
CG43078 | DRSC21541 | 1.68 | 1.51 | –
CG43078 | DRSC22327 | 1.45 | -1.36 | –
FoxK | DRSC09859 | 2.02 | – | –
Rpn7 | DRSC16841 | 0.0102 | -0.158 | –
SLO2 | DRSC06212 | 0.385 | 2.64 | –
SLO2 | DRSC06214 | 0.0844 | -0.146 | –
SLO2 | DRSC06216 | 0.746 | 0.278 | –
SLO2 | DRSC06218 | -0.372 | 0.144 | –
SLO2 | DRSC06219 | 3.25 | 3.66 | –
SLO2 | DRSC23225 | -1.31 | -0.655 | –
Golgin84 | DRSC15269 | -1.3 | -2.07 | –
CG15729 (retired record) | DRSC19695 | -0.588 | 4.28 | 0.000824
CG17560 | DRSC15242 | -0.937 | 0.191 | –
CG15865 | DRSC19733 | -0.435 | -0.0289 | –
CG11920 | DRSC14439 | 2.93 | 0.718 | –
CG14949 | DRSC08408 | 1.56 | -0.704 | –
CG3894 | DRSC01762 | 3.11 | 0.66 | –
CG3894 | DRSC04012 | -2.32 | -0.265 | –
CG3894 | DRSC04429 | 3.2 | 0.0113 | 0.0641

Ordered by “droplet/nuclear area B-score, replicate 1” (high to low): some entries from above.
predicted target | amplicon | droplet/nuclear area B-score, replicate 1 | droplet/nuclear area B-score, replicate 2 | droplet/nuclear area B-score, replicate 3
mRpL43 | DRSC22571 | 2.1 | 0.832 | –
CG14892 | DRSC15014 | 1.76 | -0.19 | –
CG1463 | DRSC19603 | 1.29 | -1.2 | 0.0132
CG17002 | DRSC04978 | 0.955 | 0.621 | –
mRpL43 | DRSC04508 | 0.669 | 0.0647 | 12.2
CG13907 | DRSC08377 | 0.03 | -1.23 | –
CG7786 | DRSC07045 | -0.0826 | 0.952 | –
Eglp2 | DRSC04294 | -0.288 | -0.648 | –
Osi3 | DRSC12175 | -0.766 | 0.202 | –
TkR86C | DRSC16880 | -1.04 | 3.4 | –
